{"source": "the supplement of paper PMC8728848", "binders": {"B1": {"name": "LlpA (Arthrobacter sp) (protein)", "chain": "MGSSHHHHHHSSGLVPRGSHMTLHPETALRPGAAATSPNSRYRLLYQTDGNLVLYGPDGPLWDSGTNGHGAGACIMQADGNLVLYGPNDEYVWDTETDNNPGSRLVIQDDGNAVIYRPDGSPLWATETCQPPGSADSHVLQSGSTLTPTHGIRSANGLYGLLYQTDGNLVFYGPDGPLWDSGTNGRGAGACIMQPDGNLVLYGPHDEYVWDTETDNNPGSRLVIQDDGNAVIYRPDGNPTWVTGTH"}}, "assay_in_all_cases": "glycan array binding signal (z-score within array); higher = stronger binding", "settings_in_all_cases": "glycan notation: IUPAC condensed, linker removed", "key": {"[1]": {"biological_target": "Fuc(a1-2)Gal(b1-4)[Fuc(a1-3)]GlcNAc", "summary_of_the_method": "(§1)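 From the Consortium for Functional Glycomics database, 3228 arrays were curated, keeping only those whose protein sequence was available. Binding is given as a within-array Z-score averaged across arrays sharing a protein sequence and across linkers. Negative Z-scores can be read as non-binding.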"}, "[2]": {"biological_target": "Fuc(a1-2)Gal(b1-4)[Fuc(a1-3)]GlcNAc(b1-2)Man(a1-3)[Fuc(a1-2)Gal(b1-4)[Fuc(a1-3)]GlcNAc(b1-2)Man(a1-6)]Man(b1-4)GlcNAc(b1-4)[Fuc(a1-6)]GlcNAc", "summary_of_the_method": "as §1"}, "[3]": {"biological_target": "Fuc(a1-2)Gal(b1-4)[Fuc(a1-3)]GlcNAc(b1-2)[Fuc(a1-2)Gal(b1-4)[Fuc(a1-3)]GlcNAc(b1-4)]Man(a1-3)[Fuc(a1-2)Gal(b1-4)[Fuc(a1-3)]GlcNAc(b1-2)Man(a1-6)]Man(b1-4)GlcNAc(b1-4)GlcNAc", "summary_of_the_method": "as §1"}, "[4]": {"biological_target": "Fuc(a1-2)Gal(b1-4)[Fuc(a1-3)]GlcNAc(b1-3)Gal(b1-4)[Fuc(a1-3)]GlcNAc", "summary_of_the_method": "as §1"}, "[5]": {"biological_target": "Fuc(a1-2)Gal(b1-4)[Fuc(a1-3)]GlcNAc(b1-3)Gal(b1-4)[Fuc(a1-3)]GlcNAc(b1-3)Gal(b1-4)[Fuc(a1-3)]GlcNAc", "summary_of_the_method": "as §1"}, "[6]": {"biological_target": "Fuc(a1-2)Gal(b1-4)[Fuc(a1-3)]GlcNAc(b1-3)GalNAc", "summary_of_the_method": "as §1"}, "[7]": {"biological_target": "Fuc(a1-2)Gal(b1-4)[Fuc(a1-3)]GlcNAc(b1-3)[Neu5Ac(a2-6)Gal(b1-4)GlcNAc(b1-6)]Gal(b1-4)Glc", "summary_of_the_method": "as §1"}, "[8]": {"biological_target": "Fuc(a1-2)Gal3S(b1-4)GlcNAc", "summary_of_the_method": "as §1"}, "[9]": {"biological_target": "Fuc(a1-2)Gal6S(b1-3)GlcNAc", "summary_of_the_method": "as §1"}, "[10]": {"biological_target": "Fuc(a1-2)Gal6S(b1-3)GlcNAc6S", "summary_of_the_method": "as §1"}, "Fuc(a1-2)Gal6S(b1-4)Glc": {"biological_target": "Fuc(a1-2)Gal6S(b1-4)Glc", "summary_of_the_method": "as §1"}, "[11]": {"biological_target": "Fuc(a1-2)Gal6S(b1-4)Glc6S", "summary_of_the_method": "as §1"}, "Fuc(a1-2)[Gal(a1-3)]Gal": {"biological_target": "Fuc(a1-2)[Gal(a1-3)]Gal", "summary_of_the_method": "as §1"}, "[12]": {"biological_target": "Fuc(a1-2)[Gal(a1-3)]Gal(b1-3)GalNAc", "summary_of_the_method": "as §1"}, "[13]": {"biological_target": "Fuc(a1-2)[Gal(a1-3)]Gal(b1-3)GalNAc(b1-3)Gal(a1-4)Gal(b1-4)Glc", "summary_of_the_method": "as §1"}, "[14]": {"biological_target": "Fuc(a1-2)[Gal(a1-3)]Gal(b1-3)GlcNAc", "summary_of_the_method": "as §1"}, "[15]": {"biological_target": "Fuc(a1-2)[Gal(a1-3)]Gal(b1-3)GlcNAc(b1-2)Man(a1-3)[Fuc(a1-2)[Gal(a1-3)]Gal(b1-3)GlcNAc(b1-2)Man(a1-6)]Man(b1-4)GlcNAc(b1-4)GlcNAc", "summary_of_the_method": "as §1"}, "[16]": {"biological_target": "Fuc(a1-2)[Gal(a1-3)]Gal(b1-3)GlcNAc(b1-2)Man(a1-3)[Fuc(a1-2)[Gal(a1-3)]Gal(b1-3)GlcNAc(b1-2)Man(a1-6)]Man(b1-4)GlcNAc(b1-4)[Fuc(a1-6)]GlcNAc", "summary_of_the_method": "as §1"}, "[17]": {"biological_target": "Fuc(a1-2)[Gal(a1-3)]Gal(b1-3)GlcNAc(b1-3)GalNAc", "summary_of_the_method": "as §1"}, "[18]": {"biological_target": "Fuc(a1-2)[Gal(a1-3)]Gal(b1-3)GlcNAc(b1-6)GalNAc", "summary_of_the_method": "as §1"}, "[19]": {"biological_target": "Fuc(a1-2)[Gal(a1-3)]Gal(b1-4)Glc", "summary_of_the_method": "as §1"}, "[20]": {"biological_target": "Fuc(a1-2)[Gal(a1-3)]Gal(b1-4)GlcNAc", "summary_of_the_method": "as §1"}, "[21]": {"biological_target": "Fuc(a1-2)[Gal(a1-3)]Gal(b1-4)GlcNAc(b1-2)Man", "summary_of_the_method": "as §1"}, "[22]": {"biological_target": "Fuc(a1-2)[Gal(a1-3)]Gal(b1-4)GlcNAc(b1-2)Man(a1-3)[Fuc(a1-2)[Gal(a1-3)]Gal(b1-4)GlcNAc(b1-2)Man(a1-6)]Man(b1-4)GlcNAc(b1-4)GlcNAc", "summary_of_the_method": "as §1"}, "[23]": {"biological_target": "Fuc(a1-2)[Gal(a1-3)]Gal(b1-4)GlcNAc(b1-2)Man(a1-3)[Fuc(a1-2)[Gal(a1-3)]Gal(b1-4)GlcNAc(b1-2)Man(a1-6)]Man(b1-4)GlcNAc(b1-4)[Fuc(a1-6)]GlcNAc", "summary_of_the_method": "as §1"}, "[24]": {"biological_target": "Fuc(a1-2)[Gal(a1-3)]Gal(b1-4)GlcNAc(b1-3)GalNAc", "summary_of_the_method": "as §1"}, "[25]": {"biological_target": "Fuc(a1-2)[Gal(a1-3)]Gal(b1-4)GlcNAc(b1-3)[Fuc(a1-2)[Gal(a1-3)]Gal(b1-4)GlcNAc(b1-6)]GalNAc", "summary_of_the_method": "as §1"}, "[26]": {"biological_target": "Fuc(a1-2)[Gal(a1-3)]Gal(b1-4)GlcNAc(b1-6)GalNAc", "summary_of_the_method": "as §1"}, "[27]": {"biological_target": "Fuc(a1-2)[Gal(a1-3)]Gal(b1-4)[Fuc(a1-3)]Glc", "summary_of_the_method": "as §1"}, "[28]": {"biological_target": "Fuc(a1-2)[Gal(a1-3)]Gal(b1-4)[Fuc(a1-3)]GlcNAc", "summary_of_the_method": "as §1"}, "[29]": {"biological_target": "Fuc(a1-2)[Gal(a1-3)]Gal(b1-4)[Fuc(a1-3)]GlcNAc(b1-3)GalNAc", "summary_of_the_method": "as §1"}, "[30]": {"biological_target": "Fuc(a1-2)[Gal(a1-4)]Gal(b1-4)GlcNAc", "summary_of_the_method": "as §1"}, "[31]": {"biological_target": "Fuc(a1-2)[GalNAc(a1-3)]Gal", "summary_of_the_method": "as §1"}, "[32]": {"biological_target": "Fuc(a1-2)[GalNAc(a1-3)]Gal(b1-3)GalNAc(a1-3)[Fuc(a1-2)]Gal(b1-4)GlcNAc", "summary_of_the_method": "as §1"}, "[33]": {"biological_target": "Fuc(a1-2)[GalNAc(a1-3)]Gal(b1-3)GalNAc(b1-3)Gal(a1-4)Gal(b1-4)Glc", "summary_of_the_method": "as §1"}, "[34]": {"biological_target": "Fuc(a1-2)[GalNAc(a1-3)]Gal(b1-3)GlcNAc", "summary_of_the_method": "as §1"}, "[35]": {"biological_target": "Fuc(a1-2)[GalNAc(a1-3)]Gal(b1-3)GlcNAc(b1-2)Man(a1-3)[Fuc(a1-2)[GalNAc(a1-3)]Gal(b1-3)GlcNAc(b1-2)Man(a1-6)]Man(b1-4)GlcNAc(b1-4)GlcNAc", "summary_of_the_method": "as §1"}, "[36]": {"biological_target": "Fuc(a1-2)[GalNAc(a1-3)]Gal(b1-3)GlcNAc(b1-2)Man(a1-3)[Fuc(a1-2)[GalNAc(a1-3)]Gal(b1-3)GlcNAc(b1-2)Man(a1-6)]Man(b1-4)GlcNAc(b1-4)[Fuc(a1-6)]GlcNAc", "summary_of_the_method": "as §1"}}, "note": "This is one part of the list.", "data": [{"binder": "B1", "values": [{"measurement": "glycan array binding signal (z-score)", "setting": "[1]", "result": -0.304}, {"measurement": "glycan array binding signal (z-score)", "setting": "[2]", "result": 1.97}, {"measurement": "glycan array binding signal (z-score)", "setting": "[3]", "result": 1.33}, {"measurement": "glycan array binding signal (z-score)", "setting": "[4]", "result": -0.312}, {"measurement": "glycan array binding signal (z-score)", "setting": "[5]", "result": -0.294}, {"measurement": "glycan array binding signal (z-score)", "setting": "[6]", "result": -1.05}, {"measurement": "glycan array binding signal (z-score)", "setting": "[7]", "result": -0.133}, {"measurement": "glycan array binding signal (z-score)", "setting": "[8]", "result": -0.507}, {"measurement": "glycan array binding signal (z-score)", "setting": "[9]", "result": -1.38}, {"measurement": "glycan array binding signal (z-score)", "setting": "[10]", "result": 0.436}, {"measurement": "glycan array binding signal (z-score)", "setting": "Fuc(a1-2)Gal6S(b1-4)Glc", "result": 0.733}, {"measurement": "glycan array binding signal (z-score)", "setting": "[11]", "result": 0.173}, {"measurement": "glycan array binding signal (z-score)", "setting": "Fuc(a1-2)[Gal(a1-3)]Gal", "result": 0.136}, {"measurement": "glycan array binding signal (z-score)", "setting": "[12]", "result": 0.157}, {"measurement": "glycan array binding signal (z-score)", "setting": "[13]", "result": -0.344}, {"measurement": "glycan array binding signal (z-score)", "setting": "[14]", "result": -0.821}, {"measurement": "glycan array binding signal (z-score)", "setting": "[15]", "result": 0.506}, {"measurement": "glycan array binding signal (z-score)", "setting": "[16]", "result": -0.848}, {"measurement": "glycan array binding signal (z-score)", "setting": "[17]", "result": -0.382}, {"measurement": "glycan array binding signal (z-score)", "setting": "[18]", "result": -0.929}, {"measurement": "glycan array binding signal (z-score)", "setting": "[19]", "result": -0.248}, {"measurement": "glycan array binding signal (z-score)", "setting": "[20]", "result": -0.094}, {"measurement": "glycan array binding signal (z-score)", "setting": "[21]", "result": -0.686}, {"measurement": "glycan array binding signal (z-score)", "setting": "[22]", "result": -0.516}, {"measurement": "glycan array binding signal (z-score)", "setting": "[23]", "result": -0.739}, {"measurement": "glycan array binding signal (z-score)", "setting": "[24]", "result": -0.279}, {"measurement": "glycan array binding signal (z-score)", "setting": "[25]", "result": 0.533}, {"measurement": "glycan array binding signal (z-score)", "setting": "[26]", "result": -0.726}, {"measurement": "glycan array binding signal (z-score)", "setting": "[27]", "result": -1.15}, {"measurement": "glycan array binding signal (z-score)", "setting": "[28]", "result": 0.864}, {"measurement": "glycan array binding signal (z-score)", "setting": "[29]", "result": 0.472}, {"measurement": "glycan array binding signal (z-score)", "setting": "[30]", "result": 1.22}, {"measurement": "glycan array binding signal (z-score)", "setting": "[31]", "result": -0.082}, {"measurement": "glycan array binding signal (z-score)", "setting": "[32]", "result": -0.066}, {"measurement": "glycan array binding signal (z-score)", "setting": "[33]", "result": -0.033}, {"measurement": "glycan array binding signal (z-score)", "setting": "[34]", "result": 0.25}, {"measurement": "glycan array binding signal (z-score)", "setting": "[35]", "result": -0.304}, {"measurement": "glycan array binding signal (z-score)", "setting": "[36]", "result": -0.119}]}]}
